Results reported in publication PMC6965636.
No constants are given. Whether binding was seen depends on the method and setting. In cells and extracts the contact can be indirect. Some entries that bind do so weakly or less than the wild type.

By UniProt entry, the sequences of proteins in these tests, tags left out.
UniProt P42224: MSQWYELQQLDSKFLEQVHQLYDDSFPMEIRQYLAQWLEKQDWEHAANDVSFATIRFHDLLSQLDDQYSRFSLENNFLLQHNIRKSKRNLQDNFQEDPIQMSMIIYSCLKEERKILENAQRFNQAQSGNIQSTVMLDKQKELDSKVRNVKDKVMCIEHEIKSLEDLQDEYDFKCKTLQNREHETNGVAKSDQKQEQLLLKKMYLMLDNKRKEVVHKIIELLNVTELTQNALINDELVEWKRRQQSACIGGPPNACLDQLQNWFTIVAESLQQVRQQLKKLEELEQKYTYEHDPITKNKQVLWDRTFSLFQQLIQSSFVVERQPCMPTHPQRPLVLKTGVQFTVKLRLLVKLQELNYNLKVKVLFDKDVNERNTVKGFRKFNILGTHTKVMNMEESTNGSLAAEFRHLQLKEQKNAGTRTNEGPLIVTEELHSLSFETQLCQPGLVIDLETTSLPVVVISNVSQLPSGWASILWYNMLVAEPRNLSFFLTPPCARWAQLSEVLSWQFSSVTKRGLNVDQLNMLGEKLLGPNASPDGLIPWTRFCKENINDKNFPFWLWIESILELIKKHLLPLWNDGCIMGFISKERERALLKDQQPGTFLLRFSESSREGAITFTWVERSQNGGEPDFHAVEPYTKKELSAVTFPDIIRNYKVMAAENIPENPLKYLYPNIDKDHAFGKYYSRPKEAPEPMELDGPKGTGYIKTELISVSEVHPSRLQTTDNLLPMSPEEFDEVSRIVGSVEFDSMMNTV
UniProt O15379: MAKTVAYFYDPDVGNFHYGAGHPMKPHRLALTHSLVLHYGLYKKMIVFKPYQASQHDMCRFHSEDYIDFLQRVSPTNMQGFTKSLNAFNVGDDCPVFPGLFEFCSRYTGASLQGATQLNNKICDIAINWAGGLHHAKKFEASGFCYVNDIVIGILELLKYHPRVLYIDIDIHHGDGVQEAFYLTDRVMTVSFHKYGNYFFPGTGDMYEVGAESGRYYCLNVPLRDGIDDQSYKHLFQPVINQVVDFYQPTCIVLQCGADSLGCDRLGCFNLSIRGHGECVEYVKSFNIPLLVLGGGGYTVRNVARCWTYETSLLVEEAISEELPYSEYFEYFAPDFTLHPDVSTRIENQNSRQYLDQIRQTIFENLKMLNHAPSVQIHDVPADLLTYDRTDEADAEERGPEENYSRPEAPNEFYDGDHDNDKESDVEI

What was measured:
[1] = target: signal transducer and activator of transcription 1 (STAT1), endogenous (human (endogenous in SMMC-7721 and HepG2)) (UniProt P42224); assay: co-IP; endogenous proteins; SMMC-7721 and HepG2 cells, whole lysates and cytoplasmic and nuclear fractions of SMMC-7721, also of SMMC-7721 ectopically expressing STAT1; lysis buffer 1 mM EDTA, 40 mM Tris-HCl pH 8, 100 mM NaCl, 0.5% NP-40, 1% Triton X-100; primary antibodies at 4 °C overnight, protein A/G-agarose beads, Western blot
[2] = target: histone deacetylase 3 (HDAC3), endogenous (human (endogenous in SMMC-7721)) (UniProt O15379); assay: as above

binding [1]: binds | binding [2]: binds
B1: Transketolase (TKT), endogenous (enzyme, UniProt P29401 1-623)
chain: MESYHKPDQQKLQALKDTANRLRISSIQATTAAGSGHPTSCCSAAEIMAVLFFHTMRYKSQDPRNPHNDRFVLSKGHAAPILYAVWAEAGFLAEAELLNLRKISSDLDGHPVPKQAFTDVATGSLGQGLGAACGMAYTGKYFDKASYRVYCLLGDGELSEGSVWEAMAFASIYKLDNLVAILDINRLGQSDPAPLQHQMDIYQKRCEAFGWHAIIVDGHSVEELCKAFGQAKHQPTAIIAKTFKGRGITGVEDKESWHGKPLPKNMAEQIIQEIYSQIQSKKKILATPPQEDAPSVDIANIRMPSLPSYKVGDKIATRKAYGQALAKLGHASDRIIALDGDTKNSTFSEIFKKEHPDRFIECYIAEQNMVSIAVGCATRNRTVPFCSTFAAFFTRAFDQIRMAAISESNINLCGSHCGVSIGEDGPSQMALEDLAMFRSVPTSTVFYPSDGVATEKAVELAANTKGICFIRTSRPENAIIYNNNEDFQVGQAKVVLKSKDDQVTVIGAGVTLHEALAAAELLKKEKINIRVLDPFTIKPLDRKLILDSARATKGRILTVEDHYYEGGIGEAVSSAVVGEPGITVTHLAVNRVPRSGKPAELLKMFGIDRDAIAQAVRGLITKA
